# From the supplement of paper PMC8616043
# Where a name gives a salt, the structure may show the parent alone. The list shows a part of the results. Single values are uncertain here, since repeats match poorly.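 The cells are human U-2 OS cells that stably carry a GFP sensor with a nuclear import signal and a classical export signal. They were transfected to make PR50, a 50-repeat proline–arginine dipeptide protein from the ALS/FTD gene C9ORF72. Each well's nuclear-minus-cytoplasm GFP signal was scaled from in-plate DMSO (low) to PR-only wells (high), then scored against the other test wells on the plate; compounds scoring well below zero were called hits that reverse the PR effect.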
# Test system: U-2 OS NCT-C biosensor cells expressing PR50
# Experiment: Z-score of normalised NCT-C biosensor translocation index in PR50-expressing cells; higher = more nuclear biosensor (more disrupted nuclear export)
# Conditions: 3 µM; 24 h
row,SMILES,Z-score
1,CC/C(=C(\c1ccccc1)c1ccc(OCCN(C)C)cc1)c1ccccc1 [Tamoxifen],inactive: 0.274
2,CC/C(=C(\c1ccccc1)c1ccc(OCCN(C)C)cc1)c1ccccc1 [Tamoxifen Citrate],inactive: 0.322
3,CC/C(=C(\c1ccccc1)c1ccc(OCCN(C)C)cc1)c1ccccc1 [Tamoxifen citrate],inactive: -0.146
4,NCc1ccc(S(N)(=O)=O)cc1 [Mafenide·HCl],inactive: 1.15
5,CC(C)(C)NCC(O)c1cc(O)cc(O)c1 (configuration not stated) [Terbutaline hemisulfate],inactive: 0.518
6,CC(C)(C)NCC(O)c1cc(O)cc(O)c1 (configuration not stated) [Terbutaline Hemisulfate],inactive: -0.596
7,O=C(O)CCCCC1CCSS1 (racemic) [(+-)-alpha-Lipoic Acid],inactive: 0.47
8,CC[N+](CC)(CC)CCOc1cccc(OCC[N+](CC)(CC)CC)c1OCC[N+](CC)(CC)CC [Gallamine triethiodide],inactive: -0.665
9,CCOC(=O)[N-]c1c[n+](N2CCOCC2)no1 [Molsidomine],inactive: -0.0883
10,C=C(c1ccc(C(=O)O)cc1)c1cc2c(cc1C)C(C)(C)CCC2(C)C [Bexarotene],inactive: 0.136
11,O=C(O)[C@H]1/C(=C/CO)O[C@@H]2CC(=O)N21 [Clavulanate Potassium],inactive: 0.165
12,CC1=C(C/C=C(\C)CCC[C@H](C)CCC[C@H](C)CCCC(C)C)C(=O)c2ccccc2C1=O [Phytonadione],inactive: 0.175
13,O=C(O)C1(C(=O)O)CCC1.[NH2-].[NH2-].[Pt+2] [Carboplatin],inactive: 1.63
14,COC(=O)C(N)Cc1ccc(Cl)cc1 (racemic) [DL-p-  Chlorophenyl alanine methyl ester HCl],inactive: -0.336
15,O=C(c1cncc(Br)c1)N1CCC(N2CCCC2)CC1,inactive: 1.78
16,O=c1c(O)c(-c2ccc(O)c(O)c2)oc2cc(O)cc(O)c12 [Quercetin·2H2O],inactive: -0.279
17,O=c1c(O)c(-c2ccc(O)c(O)c2)oc2cc(O)cc(O)c12 [Quercetin dihydrate],inactive: -0.817
18,CC(C)Cc1ccc(C(C)C(=O)O)cc1 (configuration not stated) [Ibuprofen],inactive: 1.05
19,Nc1nc2[nH]cc(CCc3ccc(C(=O)N[C@@H](CCC(=O)O)C(=O)O)cc3)c2c(=O)[nH]1 [Pemetrexed Disodium],inactive: -0.322
20,Nc1nc2[nH]cc(CCc3ccc(C(=O)N[C@@H](CCC(=O)O)C(=O)O)cc3)c2c(=O)[nH]1 [Pemetrexed disodium heptahydrate],inactive: -0.0301
21,COCCc1ccc(OCC(O)CNC(C)C)cc1 (configuration not stated) [Metoprolol Tartrate],inactive: -0.218
22,OC[C@H]1O[C@@H](O[C@@H]2[C@@H](CO)OC(O)(CO)[C@H]2O)[C@H](O)[C@@H](O)[C@H]1O (mixture of isomers) [Lactulose],inactive: 0.128
23,NCCS(=O)O [Hypotaurine],inactive: -0.151

row,SMILES,Z-score
1,COc1cc(C(=O)O[C@H]2C/C(C)=C/CC/C(C)=C/[C@H](O)[C@@H]2C(C)C)ccc1O [Tschimganidin],inactive: -0.032
2,CC[C@@H]1/C=C(\C)C[C@H](C)C[C@H](OC)[C@H]2O[C@@](O)(C(=O)C(=O)N3CCCC[C@H]3C(=O)O[C@H](/C(C)=C/[C@@H]3CC[C@H](Cl)[C@H](OC)C3)[C@H](C)[C@@H](O)CC1=O)[C@H](C)C[C@@H]2OC [Pimecrolimus],inactive: -0.16
3,CC(C)NC[C@H](O)c1ccc(O)c(O)c1 [R(-)-Isoproterenol (+)-bitartrate],inactive: 0.0432
4,O=C(O)c1cc(N(Cc2ccccc2O)Cc2ccccc2O)ccc1O [Lavendustin B],inactive: -0.42
5,N[C@@H](C(=O)N[C@@H]1C(=O)N2C(C(=O)O)=C(Cl)CS[C@H]12)c1ccccc1 [Cefaclor],inactive: 0.0724
6,CCN(c1cc(-c2ccc(CN3CCOCC3)cc2)cc(C(=O)NCc2c(C)cc(C)[nH]c2=O)c1C)C1CCOCC1,active: -2.97
7,CN(C)[C@@H]1C(O)=C(C(N)=O)C(=O)[C@@]2(O)C(O)=C3C(=O)c4c(O)ccc(Cl)c4[C@@H](O)[C@H]3C[C@@H]12 [Demeclocycline hydrochloride],inactive: -0.552
8,CN(C)[C@@H]1C(O)=C(C(N)=O)C(=O)[C@@]2(O)C(O)=C3C(=O)c4c(O)ccc(Cl)c4[C@@H](O)[C@H]3C[C@@H]12 [Demeclocycline·HCl],inactive: 0.11
9,CC(N)C12CC3CC(CC(C3)C1)C2 (configuration not stated) [Rimantadine·HCl],inactive: 0.067
10,Nc1cc(-c2ccncc2)c[nH]c1=O [Amrinone],inactive: 0.506
11,COc1ccc(C[C@@H]2c3cc(OC)c(OC)cc3CC[N@+]2(C)CCC(=O)OCCCCCOC(=O)CC[N@@+]2(C)CCc3cc(OC)c(OC)cc3[C@H]2Cc2ccc(OC)c(OC)c2)cc1OC [Cisatracurium Besylate],inactive: 0.457
12,CCC(=O)OCC(=O)[C@@]1(OC(=O)CC)[C@H](C)C[C@H]2[C@H]3[C@H]([C@@H](O)C[C@@]21C)[C@@]1(C)C=CC(=O)C=C1C[C@H]3Cl [Alclometasone dipropionate],inactive: -0.042
13,CN(CCOc1ccc(CC2SC(=O)NC2=O)cc1)c1ccccn1 (configuration not stated) [Rosiglitazone],inactive: -1.34
14,CN(C)CC[C@@H](c1ccc(Cl)cc1)c1ccccn1 [Dexchlorpheniramine Maleate],inactive: -0.45
15,N=C(N)N/N=C/c1c(Cl)cccc1Cl [Guanabenz acetate],inactive: -0.281
16,N=C(N)N/N=C/c1c(Cl)cccc1Cl [Guanabenz Acetate],active: -2.36
17,NC(=O)[C@H](CCCN=C(N)CCl)NC(=O)c1ccccc1 [Cl-Amidine],active: -2.21
18,CCCc1nc(C(C)(C)O)c(C(=O)O)n1Cc1ccc(-c2ccccc2-c2nnn[nH]2)cc1 [Olmesartan],active: -2.05
19,CN(C)CCOC(=O)COc1ccc(Cl)cc1 [Centrophenoxine hydrochloride],inactive: 0.474
20,Brc1c(NC2=NCCN2)ccc2nccnc12,inactive: -0.0645
21,Brc1c(NC2=NCCN2)ccc2nccnc12 [Brimonidine],inactive: -0.642
22,Nc1cccc2c1CN(C1CCC(=O)NC1=O)C2=O (configuration not stated) [Lenalidomide],inactive: 0.0706
23,Cc1cccc2c3c(ccc12)C1=C(C(=O)C3=O)C(C)CO1 (configuration not stated) [Dihydrotanshinone],inactive: -0.213

# Fetched one by one from above, three records:
row,SMILES,Z-score
10,Nc1cc(-c2ccncc2)c[nH]c1=O [Amrinone],inactive: 0.506
22,Nc1cccc2c1CN(C1CCC(=O)NC1=O)C2=O (configuration not stated) [Lenalidomide],inactive: 0.0706
5,N[C@@H](C(=O)N[C@@H]1C(=O)N2C(C(=O)O)=C(Cl)CS[C@H]12)c1ccccc1 [Cefaclor],inactive: 0.0724

# Given with bars between the fields: part of the list above.
row | SMILES | Z-score
23 | NCCS(=O)O [Hypotaurine] | inactive: -0.151
5 | N[C@@H](C(=O)N[C@@H]1C(=O)N2C(C(=O)O)=C(Cl)CS[C@H]12)c1ccccc1 [Cefaclor] | inactive: 0.0724

# Additional entries

row,SMILES,Z-score
1,COc1ccc2[nH]c([S+]([O-])Cc3ncc(C)c(OC)c3C)nc2c1 (configuration not stated) [Omeprazole],inactive: -0.191
2,O=C1N(c2ccccc2)c2ccccc2C1(Cc1ccncc1)Cc1ccncc1 [Linopirdine],inactive: -0.216
3,"CCCn1c(=O)c2[nH]c(-c3ccc(S(=O)(=O)O)cc3)nc2n(CCC)c1=O [1,3-Dipropyl-8-p- sulfophenyl xanthine]",inactive: -0.0424
4,Cc1ccccc1N1C(=O)c2cc(S(N)(=O)=O)c(Cl)cc2NC1C (configuration not stated) [Metolazone],inactive: -0.367
5,CN(C)CCC(c1ccc(Br)cc1)c1ccccn1 (racemic) [(±)-  Brompheniramine maleate salt],inactive: 3.13
6,OCCOCCN1CCN(C(c2ccccc2)c2ccc(Cl)cc2)CC1 (configuration not stated) [Hydroxyzine Dihydrochloride],inactive: 0.424
7,C=CC1=C(C(=O)O)N2C(=O)[C@@H](NC(=O)/C(=N\OCC(=O)O)c3csc(N)n3)[C@H]2SC1 [Cefixime],inactive: 0.151
8,CCc1cccc2c3c([nH]c12)C(CC)(CC(=O)O)OCC3 (configuration not stated) [Etodolac],inactive: 0.0282
9,O=CN(O)CCCP(=O)(O)O [Fosmidomycin sodium salt hydrate],inactive: -0.184
10,N=C(N)c1ccc(-c2ccc(-c3ccc(C(=N)N)cc3)o2)cc1 [Furamidine dihydrochloride],inactive: -0.629
11,CC1=C(CC(=O)O)c2cc(F)ccc2/C1=C\c1ccc([S+](C)[O-])cc1 (configuration not stated) [Sulindac],inactive: -0.26
12,NOCC(=O)O [O-(Carboxymethyl) hydroxylamine hemiHCl],inactive: 1.02
13,CCOC(=O)[C@H](CCc1ccccc1)N[C@@H](C)C(=O)N1CCC[C@H]1C(=O)O [Enalapril Maleate],inactive: -0.545
14,CCOC(=O)[C@H](CCc1ccccc1)N[C@@H](C)C(=O)N1CCC[C@H]1C(=O)O [Enalapril],inactive: 0.63
15,NC[C@@H]1O[C@H](c2ccccc2)Cc2c1ccc(O)c2O,inactive: -0.128
16,CN1CC2c3ccccc3Oc3ccc(Cl)cc3C2C1 (configuration not stated) [Asenapine Maleate],inactive: 0.424
17,COc1cc(C(O)C(=O)O)ccc1O (racemic) [(±)-  Vanillylmandelic acid],inactive: -0.285
18,"CC(=O)C(C)=O [2,3-Butanedione]",inactive: 0.521
19,CN1[C@@H](CC(=O)c2ccccc2)CCC[C@H]1C[C@H](O)c1ccccc1 [alpha-Lobeline hydrochloride],inactive: 0.331
20,CN1[C@@H](CC(=O)c2ccccc2)CCC[C@H]1C[C@H](O)c1ccccc1 [Lobeline·HCl],inactive: -0.314
21,CCCCCCCN(CC)CCCC(O)c1ccc(NS(C)(=O)=O)cc1 (configuration not stated) [Ibutilide Fumarate],inactive: 1.08
